# Assay results from patent US6124380A, “Metal containing e-coat catalysts optionally with tin catalysts” (priority 1999, dated 2000).
# Several values for one entry are separate records, joined by “and”; a condition that tells them apart may be missing. Identical values can stand only once.
# What was measured:
# [1] = Gel time, powder coating formulation, Brookfield Viscometer; details: cure at 150° C., […] Sn; for Increase in viscosity: >60 min
# [2] = Solvent extraction test: acetone resistance (% weight loss) of cured coating
# [3] = MIBK double rubs on cured panels
# [4] = MIBK rub test of cured E-coat panels (abrasion rating, degree of cure); set-up: key: 1: No noticeable effect on coating; 2: Faint abrasion of coating; 3: Moderate abrasion of coating; 4: Significant abrasion of coating; 5: Metal surface exposed; details: 20 min, 0.53 weight % tin on solids
# [5] = Gel time / viscosity, free isocyanate with polyol, Brookfield Viscometer; details: 67° F.
# [6] = 140 °C cure, 0.90% metal on solids
# [7] = 150 °C cure, 0.90% metal on solids
# [8] = 160 °C cure, 0.90% metal on solids
# [9] = 180 °C cure, 0.90% metal on solids
# [10] = 200 °C cure, 0.90% metal on solids
# [11] = 150° C. cure, 0.25% Sn on solids
# [12] = 150° C. cure, 0.5% Sn on solids
# [13] = 180° C. cure, 0.25% Sn on solids
# [14] = 180° C. cure, 0.5% Sn on solids
# [15] = 220 volts, 150° C. cure, 0.25% Sn on solids
# [16] = 220 volts, 150° C. cure, 0.5% Sn on solids
# [17] = 220 volts, 150° C. cure, 1% Sn on solids
# [18] = 220 volts, 180° C. cure, 0.25% Sn on solids
# [19] = 220 volts, 180° C. cure, 0.5% Sn on solids
# [20] = 220 volts, 180° C. cure, 1% Sn on solids
compound,measurement,setting,value
Dibutyl tin diacetate [reference compound],Gel Time,[1],44.5 min
"[O]=[Zn] [ZnO, zinc oxide]",% Weight Loss (acetone),[2]; [6],17.8%
same,% Weight Loss (acetone),[2]; [7],7.0%
same,% Weight Loss (acetone),[2]; [8],3.3%
same,% Weight Loss (acetone),[2]; [9],3.1%
same,% Weight Loss (acetone),[2]; [10],5.2%
"CCCCCCC[CH2][Sn]([CH2]CCCCCCC)([CH2]CCCCCCC)[O][Sn]([CH2]CCCCCCC)([CH2]CCCCCCC)[CH2]CCCCCCC [TOTO, Bis(trioctyltin)oxide]",MIBK Double Rubs,[3]; [11],20
same,MIBK Double Rubs,[3]; [12],40
same,MIBK Double Rubs,"[3]; 150° C. cure, 1% Sn on solids",≥ 200
same,MIBK Double Rubs,[3]; [13],≥ 200
same,MIBK Double Rubs,[3]; [14],≥ 200
same,MIBK Double Rubs,"[3]; 180° C. cure, 1% Sn on solids",≥ 200
same,Gel Time,[1],> 60 min
same,Increase in viscosity,[1],no inc. in visc.
same,% Weight Loss (acetone),"[2]; 140 °C cure, 0.2% metal on solids",60.3%
same,% Weight Loss (acetone),"[2]; 150 °C cure, 0.2% metal on solids",29.4%
same,% Weight Loss (acetone),"[2]; 160 °C cure, 0.2% metal on solids",7.2%
same,% Weight Loss (acetone),"[2]; 180 °C cure, 0.2% metal on solids",0.5%
same,% Weight Loss (acetone),"[2]; 200 °C cure, 0.2% metal on solids",0.7%
same,Rating for Abrasion by MIBK Rub Test,[4]; 135 °C oven,3
same,Rating for Abrasion by MIBK Rub Test,[4]; 148.8 °C oven,1
same,Rating for Abrasion by MIBK Rub Test,[4]; 165.5-185 °C oven,1
Trioctyltin laurate [TOTL],MIBK Double Rubs,[3]; [11],2
same,MIBK Double Rubs,[3]; [12],2
same,MIBK Double Rubs,"[3]; 150° C. cure, 1% Sn on solids",2
same,MIBK Double Rubs,[3]; [13],20
same,MIBK Double Rubs,[3]; [14],≥ 200
same,MIBK Double Rubs,"[3]; 180° C. cure, 1% Sn on solids",≥ 200
same,% Weight Loss (acetone),[2]; [11],68.4%
same,% Weight Loss (acetone),[2]; [12],58.6%
same,% Weight Loss (acetone),"[2]; 150° C. cure, 1% Sn on solids",42.1%
same,% Weight Loss (acetone),[2]; [13],14.3%
same,% Weight Loss (acetone),[2]; [14],0.1%
same,% Weight Loss (acetone),"[2]; 180° C. cure, 1% Sn on solids",-2.7%
"c1cc[c]([Sn]([O][Sn]([c]2ccccc2)([c]2ccccc2)[c]2ccccc2)([c]2ccccc2)[c]2ccccc2)cc1 [TPTO, bis(triphenyltin)oxide]",Rating for Abrasion by MIBK Rub Test,[4]; 135 °C oven,2
same,Rating for Abrasion by MIBK Rub Test,[4]; 148.8 °C oven,1
same,Rating for Abrasion by MIBK Rub Test,[4]; 165.5-185 °C oven,1
"CCCCCCCCCCCC[S][Sn]([CH2]CCCCCCC)([CH2]CCCCCCC)[CH2]CCCCCCC [TOTS, Trioctyltin laurylmercaptide]",MIBK Double Rubs,[3]; [15],2
same,MIBK Double Rubs,[3]; [16],2
same,MIBK Double Rubs,[3]; [17],3
same,MIBK Double Rubs,[3]; [18],2
same,MIBK Double Rubs,[3]; [19],50
same,MIBK Double Rubs,[3]; [20],≥ 200
"[OH][Sn]([c]1ccccc1)([c]1ccccc1)[c]1ccccc1 [TPTH, Triphenyltin hydroxide]",MIBK Double Rubs,[3]; [12],5
CC(=O)[O-].CC(=O)[O-].[Zn+2] [Zn Acetate],% Weight Loss (acetone),[2]; [6],23.8%
same,% Weight Loss (acetone),[2]; [7],10.1%
same,% Weight Loss (acetone),[2]; [8],5.4%
same,% Weight Loss (acetone),[2]; [9],14.0%
same,% Weight Loss (acetone),[2]; [10],26.5%
"CCC[CH2][Sn]([CH2]CCC)([CH2]CCC)[O][Sn]([CH2]CCC)([CH2]CCC)[CH2]CCC [TBTO, Bis(tributyltin) oxide]",MIBK Double Rubs,[3]; [12],20
same,MIBK Double Rubs,"[3]; 150° C. cure, 1% Sn on solids",≥ 200
same,MIBK Double Rubs,[3]; [13],≥ 200
same,MIBK Double Rubs,[3]; [14],≥ 200
same,MIBK Double Rubs,"[3]; 180° C. cure, 1% Sn on solids",≥ 200
same,Rating for Abrasion by MIBK Rub Test,[4]; 135 °C oven,4
same,Rating for Abrasion by MIBK Rub Test,[4]; 148.8 °C oven,1
same,Rating for Abrasion by MIBK Rub Test,[4]; 165.5-185 °C oven,1
Trioctyltin acetate [TOTA],MIBK Double Rubs,[3]; [15],4
same,MIBK Double Rubs,[3]; [16],2
same,MIBK Double Rubs,[3]; [17],50
same,MIBK Double Rubs,[3]; [18],≥ 200
same,MIBK Double Rubs,[3]; [19],≥ 200
same,MIBK Double Rubs,[3]; [20],≥ 200
same,Gel Time,[1],> 60 min
same,Increase in viscosity,[1],no inc. in visc.
same,% Weight Loss (acetone),[2]; [11],56.3%
same,% Weight Loss (acetone),[2]; [12],32.1%
same,% Weight Loss (acetone),"[2]; 150° C. cure, 1% Sn on solids",20.3%
same,% Weight Loss (acetone),[2]; [13],3.0%
same,% Weight Loss (acetone),[2]; [14],1.1%
same,% Weight Loss (acetone),"[2]; 180° C. cure, 1% Sn on solids",2.7%
same,% Weight Loss (acetone),[2]; [15],11.4%
same,% Weight Loss (acetone),[2]; [16],24.0%
same,% Weight Loss (acetone),[2]; [17],17.0%
same,% Weight Loss (acetone),[2]; [18],3.3%
same,% Weight Loss (acetone),[2]; [19],5.2%
same,% Weight Loss (acetone),[2]; [20],4.8%
"dibutyltin dilaurate [DBTDL, reference compound]",GEL TIME,[5]; 0.095% Sn,31 min
same,GEL TIME,[5]; 0.15% Sn,19 min and 19.4 min
"CCCCC(CC)[CH2][Sn]([CH2]C(CC)CCCC)([CH2]C(CC)CCCC)[O][Sn]([CH2]C(CC)CCCC)([CH2]C(CC)CCCC)[CH2]C(CC)CCCC (centres unmarked) [TEHTO, Bis[tri(2-ethylhexyl)tin] oxide]",MIBK Double Rubs,[3]; [11],1
same,MIBK Double Rubs,[3]; [12],50
same,MIBK Double Rubs,"[3]; 150° C. cure, 1% Sn on solids",≥ 200
same,MIBK Double Rubs,[3]; [13],≥ 200
same,MIBK Double Rubs,[3]; [14],≥ 200
same,MIBK Double Rubs,"[3]; 180° C. cure, 1% Sn on solids",≥ 200
"CCCCCCCCCCC[CH2][Sn]([CH2]CCCCCCCCCCC)([CH2]CCCCCCCCCCC)[O][Sn]([CH2]CCCCCCCCCCC)([CH2]CCCCCCCCCCC)[CH2]CCCCCCCCCCC [TDTO, Bis(tridodecyltin) oxide]",MIBK Double Rubs,[3]; [15],1
same,MIBK Double Rubs,[3]; [16],150
same,MIBK Double Rubs,[3]; [17],≥ 200
same,MIBK Double Rubs,[3]; [18],≥ 200
same,MIBK Double Rubs,[3]; [19],200
same,MIBK Double Rubs,[3]; [20],50
Tricyclohexyltin oxide [TCTH],MIBK Double Rubs,[3]; [11],1
same,MIBK Double Rubs,[3]; [12],5
same,MIBK Double Rubs,"[3]; 150° C. cure, 1% Sn on solids",100
same,MIBK Double Rubs,[3]; [13],≥ 200
same,MIBK Double Rubs,[3]; [14],≥ 200
same,MIBK Double Rubs,"[3]; 180° C. cure, 1% Sn on solids",≥ 200
same,% Weight Loss (acetone),[2]; [11],63.8%
same,% Weight Loss (acetone),[2]; [12],41.2%
same,% Weight Loss (acetone),"[2]; 150° C. cure, 1% Sn on solids",17.6%
same,% Weight Loss (acetone),[2]; [13],5.1%
same,% Weight Loss (acetone),[2]; [14],2.1%
same,% Weight Loss (acetone),"[2]; 180° C. cure, 1% Sn on solids",5.4%
"CCC[CH2][Sn](=[O])[CH2]CCC [DBTO, Dibutyltin oxide, reference compound]",MIBK Double Rubs,[3]; [11],2
same,MIBK Double Rubs,[3]; [12],5
same,MIBK Double Rubs,"[3]; 150° C. cure, 1% Sn on solids",30
same,MIBK Double Rubs,[3]; [13],≥ 200
same,MIBK Double Rubs,[3]; [14],≥ 200
same,MIBK Double Rubs,"[3]; 180° C. cure, 1% Sn on solids",≥ 200
same,MIBK Double Rubs,"[3]; Table 10, 150 °C cure, 0.5% metal on solids",5
same,MIBK Double Rubs,"[3]; Table 10, 150 °C cure, 1.0% metal on solids",30
same,MIBK Double Rubs,"[3]; Table 10, 180 °C cure, 0.5% metal on solids",≥ 200
same,MIBK Double Rubs,"[3]; Table 10, 180 °C cure, 1.0% metal on solids",≥ 200
same,% Weight Loss (acetone),"[2]; control, 150 °C cure, 0.5% metal on solids",52.5%
same,% Weight Loss (acetone),"[2]; control, 150 °C cure, 1.0% metal on solids",32.7%
same,% Weight Loss (acetone),"[2]; control, 160 °C cure, 0.5% metal on solids",20.5%
same,% Weight Loss (acetone),"[2]; control, 160 °C cure, 1.0% metal on solids",3.5%
same,% Weight Loss (acetone),"[2]; control, 180 °C cure, 1.0% metal on solids",0.2%
same,% Weight Loss (acetone),"[2]; control, 200 °C cure, 0.5% metal on solids",1.1%
same,% Weight Loss (acetone),"[2]; control, 200 °C cure, 1.0% metal on solids",2.9%
same,Rating for Abrasion by MIBK Rub Test,[4]; 135 °C oven,5
same,Rating for Abrasion by MIBK Rub Test,[4]; 148.8 °C oven,4
same,Rating for Abrasion by MIBK Rub Test,[4]; 165.5-185 °C oven,1
O=C([O-])C(=O)[O-].[Zn+2] [ZnO xalate],% Weight Loss (acetone),[2]; [6],84.9%
same,% Weight Loss (acetone),[2]; [7],83.1%
same,% Weight Loss (acetone),[2]; [8],76.6%
same,% Weight Loss (acetone),[2]; [9],56.2%
same,% Weight Loss (acetone),[2]; [10],28.3%
